This is an account of results in the supplement of paper PMC10849652.

By UniProt entry, the sequences of proteins in these tests, tags left out. Where a name states a change or a piece, a line headed by the entry shows the natural chain unless it says otherwise.
UniProt Q9BQK8: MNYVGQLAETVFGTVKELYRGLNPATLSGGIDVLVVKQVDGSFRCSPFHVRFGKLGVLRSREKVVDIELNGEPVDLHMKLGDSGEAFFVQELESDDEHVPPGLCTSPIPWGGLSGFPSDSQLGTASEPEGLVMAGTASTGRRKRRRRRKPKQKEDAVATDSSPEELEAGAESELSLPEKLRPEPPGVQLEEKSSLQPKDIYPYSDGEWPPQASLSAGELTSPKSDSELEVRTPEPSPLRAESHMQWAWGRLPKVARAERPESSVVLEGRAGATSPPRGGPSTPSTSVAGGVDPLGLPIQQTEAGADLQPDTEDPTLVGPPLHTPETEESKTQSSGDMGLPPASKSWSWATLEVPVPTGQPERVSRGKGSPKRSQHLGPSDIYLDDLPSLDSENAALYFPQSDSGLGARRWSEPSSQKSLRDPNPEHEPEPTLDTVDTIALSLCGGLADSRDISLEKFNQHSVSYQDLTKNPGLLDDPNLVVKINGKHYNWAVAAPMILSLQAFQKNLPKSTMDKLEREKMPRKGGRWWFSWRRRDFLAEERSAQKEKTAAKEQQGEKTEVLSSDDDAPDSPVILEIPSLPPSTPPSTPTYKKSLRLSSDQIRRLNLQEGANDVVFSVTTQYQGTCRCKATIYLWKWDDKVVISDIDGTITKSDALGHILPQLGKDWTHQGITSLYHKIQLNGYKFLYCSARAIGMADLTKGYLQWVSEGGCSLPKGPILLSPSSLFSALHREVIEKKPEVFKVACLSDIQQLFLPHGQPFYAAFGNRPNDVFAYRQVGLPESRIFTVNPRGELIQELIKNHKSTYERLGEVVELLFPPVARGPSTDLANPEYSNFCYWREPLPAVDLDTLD
UniProt Q14847: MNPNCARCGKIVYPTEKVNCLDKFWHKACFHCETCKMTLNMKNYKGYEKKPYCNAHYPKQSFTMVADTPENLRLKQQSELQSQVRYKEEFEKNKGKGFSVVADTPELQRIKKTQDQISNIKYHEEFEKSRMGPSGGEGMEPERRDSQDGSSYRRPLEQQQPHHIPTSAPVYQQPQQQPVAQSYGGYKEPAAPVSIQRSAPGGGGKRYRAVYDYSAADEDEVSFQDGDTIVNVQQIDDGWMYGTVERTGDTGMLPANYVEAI
UniProt Q6UWP7: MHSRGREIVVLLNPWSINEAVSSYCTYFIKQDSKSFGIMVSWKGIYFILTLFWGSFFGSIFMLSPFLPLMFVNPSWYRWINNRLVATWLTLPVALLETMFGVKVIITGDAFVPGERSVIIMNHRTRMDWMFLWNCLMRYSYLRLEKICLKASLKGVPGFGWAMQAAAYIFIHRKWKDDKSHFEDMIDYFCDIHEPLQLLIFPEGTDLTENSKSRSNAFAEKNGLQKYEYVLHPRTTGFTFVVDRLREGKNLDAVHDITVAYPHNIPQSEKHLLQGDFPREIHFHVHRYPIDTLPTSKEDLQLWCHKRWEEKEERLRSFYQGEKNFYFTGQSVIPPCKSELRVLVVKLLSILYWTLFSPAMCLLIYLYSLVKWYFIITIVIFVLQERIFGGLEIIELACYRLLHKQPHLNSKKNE
UniProt Q9BRT6: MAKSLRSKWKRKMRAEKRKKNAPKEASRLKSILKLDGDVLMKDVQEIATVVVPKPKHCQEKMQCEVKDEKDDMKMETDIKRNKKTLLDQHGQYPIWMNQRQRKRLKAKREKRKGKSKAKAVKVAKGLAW
UniProt Q92539: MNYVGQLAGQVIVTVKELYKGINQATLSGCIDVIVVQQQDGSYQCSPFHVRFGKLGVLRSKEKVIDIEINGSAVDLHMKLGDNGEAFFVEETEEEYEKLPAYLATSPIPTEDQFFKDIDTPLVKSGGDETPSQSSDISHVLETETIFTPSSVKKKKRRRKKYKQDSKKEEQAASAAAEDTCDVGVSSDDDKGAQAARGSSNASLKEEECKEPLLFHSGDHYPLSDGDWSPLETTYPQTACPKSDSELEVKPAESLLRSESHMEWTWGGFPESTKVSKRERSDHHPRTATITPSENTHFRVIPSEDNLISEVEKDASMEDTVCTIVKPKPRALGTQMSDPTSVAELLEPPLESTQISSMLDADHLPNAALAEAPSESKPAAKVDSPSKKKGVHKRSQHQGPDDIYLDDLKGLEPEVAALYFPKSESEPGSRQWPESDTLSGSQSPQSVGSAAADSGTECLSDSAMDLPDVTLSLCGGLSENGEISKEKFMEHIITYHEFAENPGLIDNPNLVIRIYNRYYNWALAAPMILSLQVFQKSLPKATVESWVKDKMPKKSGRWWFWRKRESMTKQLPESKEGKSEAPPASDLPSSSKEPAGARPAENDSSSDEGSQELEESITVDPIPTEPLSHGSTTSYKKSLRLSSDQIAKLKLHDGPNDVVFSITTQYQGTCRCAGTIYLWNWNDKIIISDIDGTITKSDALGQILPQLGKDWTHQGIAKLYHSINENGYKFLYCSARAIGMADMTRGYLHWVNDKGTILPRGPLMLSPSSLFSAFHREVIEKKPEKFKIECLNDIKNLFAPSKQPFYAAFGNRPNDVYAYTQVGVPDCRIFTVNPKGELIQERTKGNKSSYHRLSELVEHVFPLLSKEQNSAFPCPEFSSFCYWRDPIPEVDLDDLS
UniProt Q4G0J3: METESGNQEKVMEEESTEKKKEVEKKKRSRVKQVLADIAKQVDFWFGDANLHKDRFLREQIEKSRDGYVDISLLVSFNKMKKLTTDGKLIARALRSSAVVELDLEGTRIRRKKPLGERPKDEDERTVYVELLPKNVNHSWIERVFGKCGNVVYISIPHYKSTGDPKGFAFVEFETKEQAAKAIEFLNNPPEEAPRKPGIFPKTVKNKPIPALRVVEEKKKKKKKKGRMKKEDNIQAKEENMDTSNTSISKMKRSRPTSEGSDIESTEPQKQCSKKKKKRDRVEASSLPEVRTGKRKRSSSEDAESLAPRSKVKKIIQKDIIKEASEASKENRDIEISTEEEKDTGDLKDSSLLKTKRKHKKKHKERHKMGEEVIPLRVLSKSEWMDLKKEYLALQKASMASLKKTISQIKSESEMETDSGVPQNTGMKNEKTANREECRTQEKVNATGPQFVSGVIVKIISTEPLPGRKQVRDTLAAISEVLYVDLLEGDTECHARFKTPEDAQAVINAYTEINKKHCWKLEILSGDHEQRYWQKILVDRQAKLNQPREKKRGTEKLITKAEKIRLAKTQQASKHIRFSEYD
UniProt Q6P1M3: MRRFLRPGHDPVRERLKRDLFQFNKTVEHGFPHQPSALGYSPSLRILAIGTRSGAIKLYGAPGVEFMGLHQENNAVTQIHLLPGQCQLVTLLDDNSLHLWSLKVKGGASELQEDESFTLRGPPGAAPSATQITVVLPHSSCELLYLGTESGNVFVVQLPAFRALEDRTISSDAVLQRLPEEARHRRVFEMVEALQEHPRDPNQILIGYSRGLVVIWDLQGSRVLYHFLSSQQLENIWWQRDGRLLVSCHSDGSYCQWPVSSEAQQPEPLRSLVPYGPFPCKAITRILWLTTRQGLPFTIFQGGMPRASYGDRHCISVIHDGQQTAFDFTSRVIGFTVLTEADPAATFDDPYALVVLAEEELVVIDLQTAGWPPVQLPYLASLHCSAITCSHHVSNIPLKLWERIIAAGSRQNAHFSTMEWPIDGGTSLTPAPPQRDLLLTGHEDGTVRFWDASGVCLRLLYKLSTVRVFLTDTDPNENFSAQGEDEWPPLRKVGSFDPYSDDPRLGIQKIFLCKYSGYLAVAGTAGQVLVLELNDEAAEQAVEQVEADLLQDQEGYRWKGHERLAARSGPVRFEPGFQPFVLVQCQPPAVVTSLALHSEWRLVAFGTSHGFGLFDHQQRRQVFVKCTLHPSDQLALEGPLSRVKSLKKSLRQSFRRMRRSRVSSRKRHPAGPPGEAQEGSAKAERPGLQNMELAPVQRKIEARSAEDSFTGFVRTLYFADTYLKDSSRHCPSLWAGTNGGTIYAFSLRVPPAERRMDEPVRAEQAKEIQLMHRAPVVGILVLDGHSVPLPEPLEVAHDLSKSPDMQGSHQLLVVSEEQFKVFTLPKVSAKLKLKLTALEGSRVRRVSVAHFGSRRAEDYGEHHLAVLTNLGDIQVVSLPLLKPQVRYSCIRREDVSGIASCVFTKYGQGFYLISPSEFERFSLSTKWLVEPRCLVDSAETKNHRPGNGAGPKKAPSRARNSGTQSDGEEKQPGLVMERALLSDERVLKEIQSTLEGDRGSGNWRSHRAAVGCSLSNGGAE
UniProt Q9P2J5: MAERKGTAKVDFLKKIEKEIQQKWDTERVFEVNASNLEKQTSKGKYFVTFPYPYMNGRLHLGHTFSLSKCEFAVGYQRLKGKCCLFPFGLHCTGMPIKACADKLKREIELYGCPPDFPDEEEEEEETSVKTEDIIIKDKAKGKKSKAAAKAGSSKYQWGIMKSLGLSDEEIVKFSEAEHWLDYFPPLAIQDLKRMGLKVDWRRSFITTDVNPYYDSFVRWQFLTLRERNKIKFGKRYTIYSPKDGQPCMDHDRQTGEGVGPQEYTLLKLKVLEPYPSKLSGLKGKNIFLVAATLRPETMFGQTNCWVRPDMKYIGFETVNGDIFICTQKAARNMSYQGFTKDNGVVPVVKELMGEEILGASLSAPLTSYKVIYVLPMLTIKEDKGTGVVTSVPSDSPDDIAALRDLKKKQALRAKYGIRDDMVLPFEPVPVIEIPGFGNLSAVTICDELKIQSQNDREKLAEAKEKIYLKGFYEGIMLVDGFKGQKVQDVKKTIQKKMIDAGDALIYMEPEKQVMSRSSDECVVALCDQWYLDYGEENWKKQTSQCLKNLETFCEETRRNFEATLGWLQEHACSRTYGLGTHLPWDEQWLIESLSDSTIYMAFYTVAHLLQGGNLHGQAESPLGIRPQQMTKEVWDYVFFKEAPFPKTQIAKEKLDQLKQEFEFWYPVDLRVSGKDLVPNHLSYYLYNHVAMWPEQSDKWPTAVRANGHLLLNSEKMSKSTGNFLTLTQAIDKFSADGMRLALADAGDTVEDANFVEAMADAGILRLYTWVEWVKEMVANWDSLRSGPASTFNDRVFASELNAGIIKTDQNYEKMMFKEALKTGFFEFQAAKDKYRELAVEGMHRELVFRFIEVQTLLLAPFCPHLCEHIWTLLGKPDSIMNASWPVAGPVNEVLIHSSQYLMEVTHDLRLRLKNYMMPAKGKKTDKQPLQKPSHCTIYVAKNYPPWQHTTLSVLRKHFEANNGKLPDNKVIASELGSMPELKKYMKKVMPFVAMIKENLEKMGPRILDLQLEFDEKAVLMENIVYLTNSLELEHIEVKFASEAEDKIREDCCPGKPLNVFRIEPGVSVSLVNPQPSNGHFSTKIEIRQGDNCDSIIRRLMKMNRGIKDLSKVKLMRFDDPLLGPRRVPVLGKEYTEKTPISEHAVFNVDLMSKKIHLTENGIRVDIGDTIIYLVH
UniProt P09382, whole entry, looked up: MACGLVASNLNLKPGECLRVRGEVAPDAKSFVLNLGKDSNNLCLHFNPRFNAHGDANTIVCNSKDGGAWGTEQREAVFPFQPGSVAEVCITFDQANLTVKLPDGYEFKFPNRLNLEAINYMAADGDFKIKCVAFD
UniProt O14910: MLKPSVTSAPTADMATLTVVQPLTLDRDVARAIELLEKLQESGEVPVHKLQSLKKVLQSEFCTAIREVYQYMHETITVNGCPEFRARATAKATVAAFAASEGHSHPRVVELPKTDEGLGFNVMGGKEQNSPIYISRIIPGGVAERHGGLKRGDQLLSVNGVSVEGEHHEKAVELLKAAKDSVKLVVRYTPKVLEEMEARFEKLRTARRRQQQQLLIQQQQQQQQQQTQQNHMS
UniProt Q8TCA0: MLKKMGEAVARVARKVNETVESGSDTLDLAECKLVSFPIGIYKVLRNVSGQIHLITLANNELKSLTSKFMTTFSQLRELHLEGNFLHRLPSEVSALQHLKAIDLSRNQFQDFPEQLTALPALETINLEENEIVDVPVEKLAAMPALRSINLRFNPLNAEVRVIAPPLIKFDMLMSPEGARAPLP
UniProt Q8N9N7: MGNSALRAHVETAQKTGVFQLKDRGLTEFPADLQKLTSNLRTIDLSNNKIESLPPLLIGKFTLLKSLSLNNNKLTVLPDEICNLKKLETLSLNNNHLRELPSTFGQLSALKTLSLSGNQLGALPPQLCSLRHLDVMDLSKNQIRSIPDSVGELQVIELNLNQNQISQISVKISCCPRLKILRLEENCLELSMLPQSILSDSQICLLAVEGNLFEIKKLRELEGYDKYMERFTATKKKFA
UniProt Q9NS86: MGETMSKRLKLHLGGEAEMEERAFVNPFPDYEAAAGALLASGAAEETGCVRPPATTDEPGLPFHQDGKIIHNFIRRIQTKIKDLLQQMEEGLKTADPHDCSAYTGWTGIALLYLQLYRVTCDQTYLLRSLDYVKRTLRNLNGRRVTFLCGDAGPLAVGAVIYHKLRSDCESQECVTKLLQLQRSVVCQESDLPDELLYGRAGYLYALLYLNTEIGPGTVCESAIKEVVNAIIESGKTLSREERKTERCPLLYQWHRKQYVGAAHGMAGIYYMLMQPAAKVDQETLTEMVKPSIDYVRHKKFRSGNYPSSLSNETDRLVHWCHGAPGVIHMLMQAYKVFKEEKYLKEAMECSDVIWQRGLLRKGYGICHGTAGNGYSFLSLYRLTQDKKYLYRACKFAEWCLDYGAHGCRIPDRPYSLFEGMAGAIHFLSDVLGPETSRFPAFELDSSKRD

The list shows a part of the results.

Compound in this assay: CC[C@@H]1C(=O)N(C)c2cnc(Nc3ccc(C(=O)NC4CCN(C)CC4)cc3OC)nc2N1C1CCCC1
Description: log2 fold change, soluble protein after heating vs DMSO (PISA); higher = thermal stabilisation; K562 cells, 10 uM, 30 min; active = over 0.2 and 3.5 SD of the protein, either way, in both replicates (recomputed). The gist of the method: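 K562 cells (2×10^6 cells/mL) were treated with 10 μM compound for 30 min, and aliquots were heated for 3 min over 48°C-58°C. Pooled aliquots were extracted in PBS with 0.5% NP-40 at 4°C, and the supernatant after 21,000xg for 90 min was measured by TMTpro 16plex LC-MS/MS with channel sums equalised. Reported thermal stability, relative to control samples and from duplicates, is a log2 fold change.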
Turning to KYNU (UniProt Q16719), the log2 fold change is inactive: 0.093. In the case of KTN1 (UniProt Q86UP2) it was inactive: 0.039; in that of LPIN3 isoform 2 (UniProt Q9BQK8), inactive: 0.016. The same measure for LDHA isoform 3 (UniProt P00338): inactive: 0.003.

For KYAT3 (UniProt Q6YP21), the log2 fold change was inactive: 0.054. In the case of LASP1 (UniProt Q14847) it was inactive: -0.003. The same measure for LCLAT1 (UniProt Q6UWP7): inactive: -0.01; for LAMTOR4 (UniProt Q0VGL1): inactive: 0.001.

In the case of LLPH (UniProt Q9BRT6), the log2 fold change was inactive: 0.288. The same measure for LMAN2 (UniProt Q12907): inactive: -0.034. The same measure for LPIN2 (UniProt Q92539): inactive: 0.012. On to LARP7 isoform 3 (UniProt Q4G0J3), for which the log2 fold change is inactive: -0.047. The same measure for LLGL2 (UniProt Q6P1M3): inactive: 0.046; for LARS (UniProt Q9P2J5): inactive: 0.092; for LAMTOR5 (UniProt O43504): inactive: -0.012. The same measure for LRRC59 (UniProt Q96AG4): inactive: 0.016; for LGALS1 (UniProt P09382): inactive: -0.005; for LIMK2 isoform 3 (UniProt P53671): inactive: -0.014.

For LIN7A (UniProt O14910), the log2 fold change is inactive: 0.12. The same measure for LRRC20 (UniProt Q8TCA0): inactive: 0.002; for LRRC57 (UniProt Q8N9N7): inactive: 0.002; for LANCL2 (UniProt Q9NS86): inactive: 0.023. In the case of LMNA (UniProt P02545) it was inactive: 0.008.
